This experiment has as its system Mycobacterium tuberculosis. Nature of the experiment: microbe, parasite or virus in culture. Particulars: H37Rv ATCC 2517.

Our source for the MIC values is ChEMBL document CHEMBL1137651 (Antimicrob Agents Chemother, 2007).

Molecules are shown by their SMILES. Converted amounts (≈) assume the structure as drawn.

`CO[C@H]1/C=C/O[C@@]2(C)Oc3c(C)c(O)c4c(O)c(c(/C=N/N5CCN(C)CC5)c(O)c4c3C2=O)NC(=O)/C(C)=C\C=C\[C@H](C)[C@H](O)[C@@H](C)[C@@H](O)[C@@H](C)[C@H](OC(C)=O)[C@@H]1C` [RIFAMPIN] returned an MIC of 0.03 µg/mL (≈ 0.0365 µM).
